System: primary AML samples
Assay: HLA class II ligandome analysis (LC-MS/MS) of primary AML samples
Set-up: species or system human
Details: AML patients n=12; for Number of positive AMLs: HLA class II ligandome; for rep. frequency in AMLs: source protein level, HLA class II

B1: CP ceruloplasmin (ferroxidase): HLA class II ligandome-derived tumor-associated antigen (LiTAA), source protein of the peptides listed under it (protein, UniProt P00450 20-1065, looked up)
Ceruloplasmin: KEKHYYIGIIETTWDYASDHGEKKLISVDTEHSNIYLQNGPDRIGRLYKKALYLQYTDETFRTTIEKPVWLGFLGPIIKAETGDKVYVHLKNLASRPYTFHSHGITYYKEHEGAIYPDNTTDFQRADDKVYPGEQYTYMLLATEEQSPGEGDGNCVTRIYHSHIDAPKDIASGLIGPLIICKKDSLDKEKEKHIDREFVVMFSVVDENFSWYLEDNIKTYCSEPEKVDKDNEDFQESNRMYSVNGYTFGSLPGLSMCAEDRVKWYLFGMGNEVDVHAAFFHGQALTNKNYRIDTINLFPATLFDAYMVAQNPGEWMLSCQNLNHLKAGLQAFFQVQECNKSSSKDNIRGKHVRHYYIAAEEIIWNYAPSGIDIFTKENLTAPGSDSAVFFEQGTTRIGGSYKKLVYREYTDASFTNRKERGPEEEHLGILGPVIWAEVGDTIRVTFHNKGAYPLSIEPIGVRFNKNNEGTYYSPNYNPQSRSVPPSASHVAPTETFTYEWTVPKEVGPTNADPVCLAKMYYSAVEPTKDIFTGLIGPMKICKKGSLHANGRQKDVDKEFYLFPTVFDENESLLLEDNIRMFTTAPDQVDKEDEDFQESNKMHSMNGFMYGNQPGLTMCKGDSVVWYLFSAGNEADVHGIYFSGNTYLWRGERRDTANLFPQTSLTLHMWPDTEGTFNVECLTTDHYTGGMKQKYTVNQCRRQSEDSTFYLGERTYYIAAVEVEWDYSPQREWEKELHHLQEQNVSNAFLDKGEFYIGSKYKKVVYRQYTDSTFRVPVERKAEEEHLGILGPQLHADVGDKVKIIFKNMATRPYSIHAHGVQTESSTVTPTLPGETLTYVWKIPERSGAGTEDSACIPWAYYSTVDQVKDLYSGLIGPLIVCRRPYLKVFNPRRKLEFALLFLVFDENESWYLDDNIKTYSDHPEKVNKDDEEFIESNKMHAINGRMFGNLQGLTMHVGDEVNWYLMGMGNEIDLHTVHFHGHSFQYKHRGVYSSDVFDIFPGTYQTLEMFPRTPGIWLLHCHVTDHIHAGMETTYTVLQNEDTKSG
  Number of positive AMLs: 3
  rep. frequency in AMLs: 25.0%

B2: APRT adenine phosphoribosyltransferase: HLA class II ligandome-derived tumor-associated antigen (LiTAA), source protein of the peptides listed under it (protein, UniProt P07741 2-180, looked up)
Adenine …: ADSELQLVEQRIRSFPDFPTPGVVFRDISPVLKDPASFRAAIGLLARHLKATHGGRIDYIAGLDSRGFLFGPSLAQELGLGCVLIRKRGKLPGPTLWASYSLEYGKAELEIQKDALEPGQRVVVVDDLLATGGTMNAACELLGRLQAEVLECVSLVELTSLKGREKLAPVPFFSLLQYE
  Number of positive AMLs: 3
  rep. frequency in AMLs: 25.0%

B3: CORO1A coronin, actin binding protein, 1A: HLA class II ligandome-derived tumor-associated antigen (LiTAA), source protein of the peptides listed under it (protein, UniProt P31146 2-461, looked up)
Coronin-1A: SRQVVRSSKFRHVFGQPAKADQCYEDVRVSQTTWDSGFCAVNPKFVALICEASGGGAFLVLPLGKTGRVDKNAPTVCGHTAPVLDIAWCPHNDNVIASGSEDCTVMVWEIPDGGLMLPLREPVVTLEGHTKRVGIVAWHTTAQNVLLSAGCDNVIMVWDVGTGAAMLTLGPEVHPDTIYSVDWSRDGGLICTSCRDKRVRIIEPRKGTVVAEKDRPHEGTRPVRAVFVSEGKILTTGFSRMSERQVALWDTKHLEEPLSLQELDTSSGVLLPFFDPDTNIVYLCGKGDSSIRYFEITSEAPFLHYLSMFSSKESQRGMGYMPKRGLEVNKCEIARFYKLHERRCEPIAMTVPRKSDLFQEDLYPPTAGPDPALTAEEWLGGRDAGPLLISLKDGYVPPKSRELRVNRGLDTGRRRAAPEASGTPSSDAVSRLEEEMRKLQATVQELQKRLDRLEETVQAK
  Number of positive AMLs: 5
  rep. frequency in AMLs: 41.7%

B4: LBP lipopolysaccharide binding protein: HLA class II ligandome-derived tumor-associated antigen (LiTAA), source protein of the peptides listed under it (protein, UniProt P18428 26-481, looked up)
Lipopolysaccharide-binding …: ANPGLVARITDKGLQYAAQEGLLALQSELLRITLPDFTGDLRIPHVGRGRYEFHSLNIHSCELLHSALRPVPGQGLSLSISDSSIRVQGRWKVRKSFFKLQGSFDVSVKGISISVNLLLGSESSGRPTVTASSCSSDIADVEVDMSGDLGWLLNLFHNQIESKFQKVLESRICEMIQKSVSSDLQPYLQTLPVTTEIDSFADIDYSLVEAPRATAQMLEVMFKGEIFHRNHRSPVTLLAAVMSLPEEHNKMVYFAISDYVFNTASLVYHEEGYLNFSITDDMIPPDSNIRLTTKSFRPFVPRLARLYPNMNLELQGSVPSAPLLNFSPGNLSVDPYMEIDAFVLLPSSSKEPVFRLSVATNVSATLTFNTSKITGFLKPGKVKVELKESKVGLFNAELLEALLNYYILNTFYPKFNDKLAEGFPLPLLKRVQLYDLGLQIHKDFLFLGANVQYMRV
  Number of positive AMLs: 3
  rep. frequency in AMLs: 25.0%

B5: RAB5A RAB5A, member RAS oncogene family: HLA class II ligandome-derived tumor-associated antigen (LiTAA), source protein of the peptides listed under it (protein, UniProt P20339 1-215, looked up)
Ras-related protein Rab-5A: MASRGATRPNGPNTGNKICQFKLVLLGESAVGKSSLVLRFVKGQFHEFQESTIGAAFLTQTVCLDDTTVKFEIWDTAGQERYHSLAPMYYRGAQAAIVVYDITNEESFARAKNWVKELQRQASPNIVIALSGNKADLANKRAVDFQEAQSYADDNSLLFMETSAKTSMNVNEIFMAIAKKLPKNEPQNPGANSARGRGVDLTEPTQPTRNQCCSN
  Number of positive AMLs: 3
  rep. frequency in AMLs: 25.0%

B6: ICAM3 intercellular adhesion molecule 3: HLA class II ligandome-derived tumor-associated antigen (LiTAA), source protein of the peptides listed under it (protein, UniProt P32942 30-547, looked up)
Intercellular adhesion …: QEFLLRVEPQNPVLSAGGSLFVNCSTDCPSSEKIALETSLSKELVASGMGWAAFNLSNVTGNSRILCSVYCNGSQITGSSNITVYRLPERVELAPLPPWQPVGQNFTLRCQVEDGSPRTSLTVVLLRWEEELSRQPAVEEPAEVTATVLASRDDHGAPFSCRTELDMQPQGLGLFVNTSAPRQLRTFVLPVTPPRLVAPRFLEVETSWPVDCTLDGLFPASEAQVYLALGDQMLNATVMNHGDTLTATATATARADQEGAREIVCNVTLGGERREARENLTVFSFLGPIVNLSEPTAHEGSTVTVSCMAGARVQVTLDGVPAAAPGQPAQLQLNATESDDGRSFFCSATLEVDGEFLHRNSSVQLRVLYGPKIDRATCPQHLKWKDKTRHVLQCQARGNPYPELRCLKEGSSREVPVGIPFFVNVTHNGTYQCQASSSRGKYTLVVVMDIEAGSSHFVPVFVAVLLTLGVVTIVLALMYVFREHQRSGSYHVREESTYLPLTSMQPTEAMGEEPSRAE
  Number of positive AMLs: 3
  rep. frequency in AMLs: 25.0%

B7: MAN1A1 mannosidase, alpha, class 1A, member 1: HLA class II ligandome-derived tumor-associated antigen (LiTAA), source protein of the peptides listed under it (protein, UniProt P33908 1-653, looked up)
Mannosyl-oligosaccharide …: MPVGGLLPLFSSPAGGVLGGGLGGGGGRKGSGPAALRLTEKFVLLLVFSAFITLCFGAIFFLPDSSKLLSGVLFHSSPALQPAADHKPGPGARAEDAAEGRARRREEGAPGDPEAALEDNLARIRENHERALREAKETLQKLPEEIQRDILLEKKKVAQDQLRDKAPFRGLPPVDFVPPIGVESREPADAAIREKRAKIKEMMKHAWNNYKGYAWGLNELKPISKGGHSSSLFGNIKGATIVDALDTLFIMEMKHEFEEAKSWVEENLDFNVNAEISVFEVNIRFVGGLLSAYYLSGEEIFRKKAVELGVKLLPAFHTPSGIPWALLNMKSGIGRNWPWASGGSSILAEFGTLHLEFMHLSHLSGNPIFAEKVMNIRTVLNKLEKPQGLYPNYLNPSSGQWGQHHVSVGGLGDSFYEYLLKAWLMSDKTDLEAKKMYFDAVQAIETHLIRKSSSGLTYIAEWKGGLLEHKMGHLTCFAGGMFALGADAAPEGMAQHYLELGAEIARTCHESYNRTFMKLGPEAFRFDGGVEAIATRQNEKYYILRPEVMETYMYMWRLTHDPKYRKWAWEAVEALENHCRVNGGYSGLRDVYLLHESYDDVQQSFFLAETLKYLYLIFSDDDLLPLEHWIFNSEAHLLPILPKDKKEVEIREE
  Number of positive AMLs: 3
  rep. frequency in AMLs: 25.0%

B8: RBMX RNA binding motif protein, X-linked: HLA class II ligandome-derived tumor-associated antigen (LiTAA), source protein of the peptides listed under it (protein, UniProt P38159 1-391, looked up)
RNA-binding motif protein, X …: MVEADRPGKLFIGGLNTETNEKALEAVFGKYGRIVEVLLMKDRETNKSRGFAFVTFESPADAKDAARDMNGKSLDGKAIKVEQATKPSFESGRRGPPPPPRSRGPPRGLRGGRGGSGGTRGPPSRGGHMDDGGYSMNFNMSSSRGPLPVKRGPPPRSGGPPPKRSAPSGPVRSSSGMGGRAPVSRGRDSYGGPPRREPLPSRRDVYLSPRDDGYSTKDSYSSRDYPSSRDTRDYAPPPRDYTYRDYGHSSSRDDYPSRGYSDRDGYGRDRDYSDHPSGGSYRDSYESYGNSRSAPPTRGPPPSYGGSSRYDDYSSSRDGYGGSRDSYSSSRSDLYSSGRDRVGRQERGLPPSMERGYPPPRDSYSSSSRGAPRGGGRGGSRSDRGGGRSRY
  Number of positive AMLs: 3
  rep. frequency in AMLs: 25.0%

B9: PBX2 pre-B-cell leukemia homeobox 2: HLA class II ligandome-derived tumor-associated antigen (LiTAA), source protein of the peptides listed under it (protein, UniProt P40425 1-430, looked up)
Pre-B-cell leukemia …: MDERLLGPPPPGGGRGGLGLVSGEPGGPGEPPGGGDPGGGSGGVPGGRGKQDIGDILQQIMTITDQSLDEAQAKKHALNCHRMKPALFSVLCEIKEKTGLSIRSSQEEEPVDPQLMRLDNMLLAEGVAGPEKGGGSAAAAAAAAASGGGVSPDNSIEHSDYRSKLAQIRHIYHSELEKYEQACNEFTTHVMNLLREQSRTRPVAPKEMERMVSIIHRKFSAIQMQLKQSTCEAVMILRSRFLDARRKRRNFSKQATEVLNEYFYSHLSNPYPSEEAKEELAKKCGITVSQVSNWFGNKRIRYKKNIGKFQEEANIYAVKTAVSVTQGGHSRTSSPTPPSSAGSGGSFNLSGSGDMFLGMPGLNGDSYSASQVESLRHSMGPGGYGDNLGGGQMYSPREMRANGSWQEAVTPSSVTSPTEGPGSVHSDTSN
  Number of positive AMLs: 3
  rep. frequency in AMLs: 25.0%
